Laboratory results from PubChem BioAssay AID2662 (National Center for Advancing Translational Sciences (NCATS), 2010).
Hit rate of the full screen: of about 290,000 compounds, about 110 (0.038%) were called active. Inconclusive means that the source gave no clear call. Such entries were picked first, then a sample of the others. Calls follow the shape of the dose curve; as a rule, active = well fitted inhibition curve with a large enough effect in the polarisation, with a control signal flat (not every such curve was filed as active); inconclusive = small, poorly fitted or top-dose-only effect, or effect the other way, or a change in a side signal; inactive = no such curve, though single readings can be large or run the other way; the % refers to the polarisation. Potencies of inconclusive entries are doubtful fits and often do not repeat. A note “side channel” means that the fit belongs to a control or component signal, not to the main read-out.
Potency is read from the fitted curve at half-maximal effect.

Chains of the proteins cited; added tags and fusions are not shown.
UniProt Q03164, whole entry, looked up: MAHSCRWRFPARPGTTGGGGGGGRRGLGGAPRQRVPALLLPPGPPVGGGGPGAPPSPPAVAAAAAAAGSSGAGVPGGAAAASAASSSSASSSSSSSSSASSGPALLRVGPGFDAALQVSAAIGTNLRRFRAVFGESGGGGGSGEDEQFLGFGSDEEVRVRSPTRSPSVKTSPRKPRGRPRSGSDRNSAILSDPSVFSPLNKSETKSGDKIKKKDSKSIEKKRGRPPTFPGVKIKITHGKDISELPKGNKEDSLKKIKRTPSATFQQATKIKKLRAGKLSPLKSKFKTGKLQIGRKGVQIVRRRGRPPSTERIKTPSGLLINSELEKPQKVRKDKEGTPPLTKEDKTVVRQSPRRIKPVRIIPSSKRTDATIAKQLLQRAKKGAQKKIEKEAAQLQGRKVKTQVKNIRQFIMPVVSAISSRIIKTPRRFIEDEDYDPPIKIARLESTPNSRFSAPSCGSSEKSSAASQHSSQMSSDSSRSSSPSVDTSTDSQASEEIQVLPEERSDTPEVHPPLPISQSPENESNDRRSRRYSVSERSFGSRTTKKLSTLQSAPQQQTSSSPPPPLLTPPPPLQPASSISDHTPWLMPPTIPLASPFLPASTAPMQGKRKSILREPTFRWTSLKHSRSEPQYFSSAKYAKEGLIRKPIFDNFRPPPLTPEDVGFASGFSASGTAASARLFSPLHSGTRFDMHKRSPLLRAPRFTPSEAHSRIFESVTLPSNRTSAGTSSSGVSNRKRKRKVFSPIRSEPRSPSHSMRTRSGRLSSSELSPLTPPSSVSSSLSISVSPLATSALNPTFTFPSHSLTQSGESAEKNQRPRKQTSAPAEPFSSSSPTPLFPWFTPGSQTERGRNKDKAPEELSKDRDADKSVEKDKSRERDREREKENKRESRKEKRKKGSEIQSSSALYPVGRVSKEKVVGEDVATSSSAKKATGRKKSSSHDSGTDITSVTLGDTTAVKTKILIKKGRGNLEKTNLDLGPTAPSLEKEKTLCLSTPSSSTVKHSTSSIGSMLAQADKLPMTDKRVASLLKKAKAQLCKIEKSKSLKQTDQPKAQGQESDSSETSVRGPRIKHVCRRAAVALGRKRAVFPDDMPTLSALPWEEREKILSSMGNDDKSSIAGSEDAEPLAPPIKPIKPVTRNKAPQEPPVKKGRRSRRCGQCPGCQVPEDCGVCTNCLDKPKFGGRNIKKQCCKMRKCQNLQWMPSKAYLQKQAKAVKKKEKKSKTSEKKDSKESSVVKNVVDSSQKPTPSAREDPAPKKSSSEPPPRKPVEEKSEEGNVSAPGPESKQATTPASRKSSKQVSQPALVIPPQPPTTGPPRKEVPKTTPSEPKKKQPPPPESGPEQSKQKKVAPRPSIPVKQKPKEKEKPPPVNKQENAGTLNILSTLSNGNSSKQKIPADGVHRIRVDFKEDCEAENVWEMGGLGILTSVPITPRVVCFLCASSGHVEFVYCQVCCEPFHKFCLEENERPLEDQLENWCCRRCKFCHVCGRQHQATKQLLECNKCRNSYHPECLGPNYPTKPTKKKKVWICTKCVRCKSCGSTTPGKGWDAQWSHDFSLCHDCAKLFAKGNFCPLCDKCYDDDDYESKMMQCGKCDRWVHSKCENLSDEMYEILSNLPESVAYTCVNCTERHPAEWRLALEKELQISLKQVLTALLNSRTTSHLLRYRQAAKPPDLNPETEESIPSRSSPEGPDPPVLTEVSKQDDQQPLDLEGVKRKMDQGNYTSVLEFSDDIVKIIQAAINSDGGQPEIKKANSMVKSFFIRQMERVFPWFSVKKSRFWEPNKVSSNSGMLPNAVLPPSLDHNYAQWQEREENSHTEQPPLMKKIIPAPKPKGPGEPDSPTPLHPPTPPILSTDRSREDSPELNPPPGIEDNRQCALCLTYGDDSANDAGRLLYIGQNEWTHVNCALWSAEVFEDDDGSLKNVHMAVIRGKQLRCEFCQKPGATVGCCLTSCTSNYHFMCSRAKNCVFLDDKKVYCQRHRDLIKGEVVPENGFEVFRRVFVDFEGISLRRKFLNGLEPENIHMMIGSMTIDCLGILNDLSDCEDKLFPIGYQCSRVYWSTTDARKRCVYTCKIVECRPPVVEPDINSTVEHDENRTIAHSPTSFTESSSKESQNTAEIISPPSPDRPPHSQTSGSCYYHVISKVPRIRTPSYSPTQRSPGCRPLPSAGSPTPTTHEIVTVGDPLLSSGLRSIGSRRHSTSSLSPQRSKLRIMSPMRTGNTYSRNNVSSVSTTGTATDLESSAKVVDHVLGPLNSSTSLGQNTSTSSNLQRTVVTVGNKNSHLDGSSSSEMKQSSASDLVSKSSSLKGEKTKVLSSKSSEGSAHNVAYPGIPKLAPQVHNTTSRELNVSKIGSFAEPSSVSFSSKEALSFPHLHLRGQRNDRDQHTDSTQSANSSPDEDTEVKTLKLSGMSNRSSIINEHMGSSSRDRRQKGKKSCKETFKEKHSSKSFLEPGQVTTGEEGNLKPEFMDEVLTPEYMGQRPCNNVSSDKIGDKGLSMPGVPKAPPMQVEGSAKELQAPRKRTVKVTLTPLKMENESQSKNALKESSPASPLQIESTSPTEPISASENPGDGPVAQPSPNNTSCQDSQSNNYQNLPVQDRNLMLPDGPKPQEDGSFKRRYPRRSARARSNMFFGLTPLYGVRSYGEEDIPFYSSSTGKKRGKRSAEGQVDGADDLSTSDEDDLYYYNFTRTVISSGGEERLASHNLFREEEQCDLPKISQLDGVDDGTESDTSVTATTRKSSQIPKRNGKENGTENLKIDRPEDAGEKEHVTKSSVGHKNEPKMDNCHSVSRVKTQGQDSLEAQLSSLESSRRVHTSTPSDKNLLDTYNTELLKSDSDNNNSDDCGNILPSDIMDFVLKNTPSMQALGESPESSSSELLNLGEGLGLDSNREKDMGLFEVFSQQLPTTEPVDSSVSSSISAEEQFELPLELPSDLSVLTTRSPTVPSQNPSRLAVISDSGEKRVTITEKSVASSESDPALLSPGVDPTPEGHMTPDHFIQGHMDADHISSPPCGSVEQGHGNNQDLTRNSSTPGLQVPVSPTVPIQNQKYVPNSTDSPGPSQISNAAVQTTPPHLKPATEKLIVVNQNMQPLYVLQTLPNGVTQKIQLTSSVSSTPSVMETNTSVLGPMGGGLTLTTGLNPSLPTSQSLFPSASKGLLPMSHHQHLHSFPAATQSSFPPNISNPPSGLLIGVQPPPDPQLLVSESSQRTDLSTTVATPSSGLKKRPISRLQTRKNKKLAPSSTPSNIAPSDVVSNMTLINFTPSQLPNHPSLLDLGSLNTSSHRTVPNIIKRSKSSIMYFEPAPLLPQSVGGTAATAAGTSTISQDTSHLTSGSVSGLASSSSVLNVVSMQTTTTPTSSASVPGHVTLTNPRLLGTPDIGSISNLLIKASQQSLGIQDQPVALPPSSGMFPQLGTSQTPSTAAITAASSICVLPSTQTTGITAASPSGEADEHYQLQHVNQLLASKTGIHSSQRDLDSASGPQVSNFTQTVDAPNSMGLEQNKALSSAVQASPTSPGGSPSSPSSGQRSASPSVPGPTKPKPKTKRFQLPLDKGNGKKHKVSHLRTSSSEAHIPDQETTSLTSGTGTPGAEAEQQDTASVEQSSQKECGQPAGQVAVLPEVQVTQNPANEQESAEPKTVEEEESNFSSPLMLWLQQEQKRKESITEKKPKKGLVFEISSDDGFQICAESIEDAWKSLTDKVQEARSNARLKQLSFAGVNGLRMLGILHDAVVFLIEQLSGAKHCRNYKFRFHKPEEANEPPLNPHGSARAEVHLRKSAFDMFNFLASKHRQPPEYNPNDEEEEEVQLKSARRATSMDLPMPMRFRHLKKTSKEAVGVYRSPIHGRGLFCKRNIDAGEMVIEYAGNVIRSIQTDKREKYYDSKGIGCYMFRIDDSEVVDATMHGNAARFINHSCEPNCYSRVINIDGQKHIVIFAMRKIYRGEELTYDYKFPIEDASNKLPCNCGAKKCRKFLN

What follows are compounds tested against Histone-lysine N-methyltransferase 2A (Homo sapiens) (UniProt Q03164) (assay: qHTS Fluorescence Polarization Assay for Inhibitors of MLL CXXC domain - DNA interaction). Details: MLL-CXXC / FITC-HOXA9 DNA fluorescence polarization; activity change, negative = inhibition: at 115 µM (top of the series).
How it was run: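 Fluorescence polarization: 7 uM MLL-CXXC (stock) preincubated 5 min with compounds, then 50 nM fluorescein-HOX-A9 DNA (stock) added; 30 min ambient. Buffer 50 mM Tris-HCl pH 7.5, 50 mM NaCl, 1 mM DTT, 0.05% BSA.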
In the case of `O=C(NC1CCCCCC1)C(=S)NCc1ccccc1`, the Potency is reported as inconclusive: 11.2 µM [quencher, side channel, full curve, poor fit].
For `Cc1cccc(-c2nnc3n2N=C(c2ccc(Br)cc2)CS3)c1`, the Potency was inconclusive: 15.8 µM [fluorescent, side channel, single point].
`N#CC1=C(N)n2c(s/c(=C\c3cccs3)c2=O)=C(C#N)C1c1cccs1` (stereo not given) was tested, and the Potency was inconclusive: 15.8 µM [fluorescent, side channel, single point].
`COC(=O)C(CC(=O)O)NCc1ccco1` (stereo not given) was tested, and the Potency was inconclusive: 39.8 µM [inhibitor, partial curve].
In the case of `Cc1ccc(C(=O)n2cnnc2N)cc1`, the Potency is reported as inconclusive: 31.6 µM [fluorescent, side channel, single point].
In the case of `O=C(NCc1ccccc1)C1CCCN(S(=O)(=O)c2ccc(-n3cnnn3)cc2)C1` (stereo not given), the Potency is reported as inconclusive: 17.8 µM [fluorescent, side channel, partial curve].
`COc1cc2[nH]c(=O)n(CCC(=O)N3CCN(Cc4ccccc4)CC3)c(=O)c2cc1OC` was tested, and the Potency was inconclusive: 70.8 µM [fluorescent, side channel, single point].
For `N#Cc1nc(-c2ccco2)oc1NCCCN1CCOCC1`, the Potency was “inactive”.
With `Cn1ncc2c(Nc3ccccc3Cl)nc(Nc3ccccc3Cl)nc21` the Potency was inconclusive: 63.1 µM [fluorescent, single point].
`CC(=O)Nc1cccc(C2=CC(c3ccco3)n3ncnc3N2)c1` (stereo not given) was tested, and the Potency was inconclusive: 35.5 µM [fluorescent, side channel, partial curve].
For `CSC1=NCCN1S(=O)(=O)c1ccc(F)cc1`, the Potency was inconclusive: 2.24 µM [fluorescent, side channel, partial curve].
In the case of `Cc1ccc(O)c(CNc2cccc3cccnc23)c1`, the Potency is reported as “inactive”.
`O=C(Nc1cccnc1)/C(N=Nc1ccc(Cl)c(C(F)(F)F)c1)=C(\O)c1ccccc1` was tested, and the Potency was inconclusive: 70.8 µM [quencher, side channel, single point].
In the case of `O=C(CNC(=O)c1ccc(Br)cc1)NCC(=O)OCC(=O)c1ccc([N+](=O)[O-])cc1`, the activity change, negative = inhibition is reported as inconclusive: 0.908% [phenotype inactive].
With `O=C(Nc1ccc(S(=O)(=O)Nc2nccs2)cc1)c1cccc(N2C(=O)c3ccccc3C2=O)c1` the Potency was inconclusive: 11.2 µM [fluorescent, side channel, single point].
For `COc1ccccc1C(=O)NNC(=O)c1ccc(NC(=O)CC(C)C)cc1`, the Potency was inconclusive: 31.6 µM [inhibitor, single point].
`O=C(CSCc1ccccc1F)NCc1ccc(F)cc1` was tested, and the Potency was “inactive”.
For `N#C/C(=C\c1cc2ccccc2nc1N1CCOCC1)C(=O)Nc1ccc(N2CCOCC2)cc1`, the Potency was inconclusive: 35.5 µM [quencher, side channel, single point].
With `CCOc1cc(CNC2CCCC2)cc(Cl)c1OCc1ccccc1` the Potency was inconclusive: 17.8 µM [quencher, side channel, partial curve].
In the case of `CCCS(=O)(=O)N1CCCC(C(=O)NC2CCCCC2)C1` (stereo not given), the Potency is reported as inconclusive: 8.91 µM [quencher, side channel, single point].
For `Cc1cc(C)n2nc(SCC(=O)NC(=O)NCc3ccco3)nc2n1`, the activity change, negative = inhibition was inconclusive: 0.302% [phenotype inactive].
In the case of `Cc1ccc(C(=O)Oc2ccc(N3C(=O)CCC3=O)c(C)c2)cc1`, the Potency is reported as inconclusive: 31.6 µM [fluorescent, side channel, partial curve].
With `CN(C1=C(N2CCOCC2)C(=O)c2ccccc2C1=O)c1ccccc1` the Potency was “inactive”.
`CNC(=O)Nc1ccc(Cn2cc(C(F)(F)F)ccc2=O)cc1` was tested, and the Potency was inconclusive: 89.1 µM [fluorescent, side channel, single point].
`CN(C)CCCNC(=O)C(=O)Nc1cc2c3c(c1)CCC(=O)N3CCC2` was tested, and the Potency was “inactive”.
For `S=c1[nH]nc(-c2cc(-c3ccccc3)n[nH]2)n1/N=C/C=C/c1ccco1`, the Potency was “inactive”.
For `COc1cc(/C=C(\C#N)C(N)=O)ccc1OCc1c(C)no[n+]1[O-]`, the Potency was inconclusive: 15.8 µM [inhibitor, single point].
In the case of `[O-]/C(=C(\C(=S)NCc1ccccc1)[n+]1ccccc1)c1ccc(Cl)cc1`, the Potency is reported as inconclusive: 31.6 µM [fluorescent, side channel, single point].
`Cc1ccc2nc(Nc3ccc(Cl)cc3)c3nncn3c2c1` was tested, and the Potency was inconclusive: 7.94 µM [fluorescent, full curve].
`Cc1ccc(NC(=O)CSC(C)c2nc3ccccc3c(=O)[nH]2)cc1` (stereo not given) was tested, and the Potency was inconclusive: 12.6 µM [fluorescent, side channel, single point].
For `C[C@H](CCC(=O)NCC(=O)O)[C@H]1CC[C@H]2[C@@H]3[C@H](O)C[C@@H]4C[C@H](O)CC[C@]4(C)[C@H]3C[C@H](O)[C@]12C`, the Potency was inconclusive: 50.1 µM [inhibitor, single point].
In the case of `CSCCC(NC(=O)c1ccc(Cl)cc1Cl)C(=O)NNC(=O)c1csc(N2CCOCC2)n1` (stereo not given), the Potency is reported as inconclusive: 11.2 µM [fluorescent, side channel, single point].
`Cc1cc(NC(=O)c2ccccc2F)n(-c2nc3ccccc3[nH]2)n1` was tested, and the Potency was inconclusive: 44.7 µM [inhibitor, single point].
With `Cc1ccc(SCC(=O)N=C2NC(=O)CS2)cc1` the Potency was inconclusive: 50.1 µM [fluorescent, side channel, single point].
`CC(C)CNC(=O)C(=O)Nc1ccc(N(C)C)cc1` was tested, and the Potency was inconclusive: 15.8 µM [fluorescent, side channel, single point].
For `Cc1ccc(N2NC(=O)/C(=C/c3ccc(-c4ccc(Cl)c(C(=O)O)c4)o3)C2=O)cc1`, the Potency was inconclusive: 63.1 µM [inhibitor, single point].
`Cc1cccc(Nc2nnc(-c3ccc(N4CCOCC4)c([N+](=O)[O-])c3)c3ccccc23)c1` was tested, and the Potency was inconclusive: 1 µM [fluorescent, side channel, partial curve, poor fit].
With `COc1ccc(OC)c(/C=C/c2nc3ccccc3[nH]c2=O)c1` the Potency was inconclusive: 35.5 µM [fluorescent, side channel, partial curve].
For `CC(C)=NNC1=NC(C)(C)Cc2ccccc21`, the Potency was inconclusive: 15.8 µM [inhibitor, single point].
`C/C(=N\N1CCN(C2c3ccccc3-c3ccccc32)CC1)c1cccnc1` was tested, and the Potency was “inactive”.
With `O=C(CCS(=O)(=O)c1ccccc1)NC12CC3CC(CC(C3)C1)C2` the Potency was inconclusive: 15.8 µM [inhibitor, single point].
With `CC(C)(C)c1ccc(/C=C/C(=O)O)s1` the Potency was inconclusive: 70.8 µM [fluorescent, side channel, single point].
`COC(=O)C1=NNC2(C)C(=O)N(c3ccc(C)cc3)C(=O)C12` (stereo not given) was tested, and the Potency was “inactive”.
In the case of `Cn1ccnc1SCC(=O)Nc1cc(F)ccc1F`, the Potency is reported as inconclusive: 15.8 µM [fluorescent, side channel, single point].
With `CN(C)CCNc1ncnc2c1sc1nc(N3CCOCC3)c3c(c12)CC(C)(C)SC3` the Potency was inconclusive: 22.4 µM [quencher, side channel, partial curve].
`Cc1ccc(CSc2nc(-c3ccccc3)c(C#N)c(=O)[nH]2)cc1` was tested, and the Potency was inconclusive: 63.1 µM [fluorescent, side channel, single point].
In the case of `O=C(COC(=O)c1ccc(Cl)c(Cl)c1)NC1CCCC1`, the Potency is reported as inconclusive: 63.1 µM [fluorescent, side channel, single point].
In the case of `CC(C)(C)C(=O)NC(=S)Nc1sc2c(c1C(N)=O)CCC2`, the Potency is reported as inconclusive: 11.2 µM [inhibitor, full curve].
For `COc1cc(OC)c(-c2nn3c(-c4ccco4)nnc3s2)cc1OC`, the Potency was “inactive”.
With `Cc1ccc(C)c(NC(=O)Cn2c(=O)n(-c3ccc(CC(=O)NCC4CCCO4)cc3)c(=O)c3ccccc32)c1` (stereo not given) the Potency was inconclusive: 44.7 µM [fluorescent, side channel, partial curve].
In the case of `O=C1OCC(CO)(CO)N=C1NNc1ccc(Cl)c(Cl)c1`, the Potency is reported as “inactive”.
`COc1cc(CNCc2ccccn2)ccc1OCc1ccc(Cl)cc1Cl` was tested, and the Potency was inconclusive: 44.7 µM [quencher, side channel, single point].
In the case of `CCCN1CCc2c(sc(NC(=O)c3ccc(S(=O)(=O)N(C)c4ccccc4)cc3)c2C(=O)NC)C1`, the Potency is reported as inconclusive: 35.5 µM [fluorescent, side channel, partial curve].
`CCCc1nnc(NC(=O)c2ccncc2)s1` was tested, and the Potency was inconclusive: 1.26 µM [inhibitor, full curve, poor fit].
For `CN(C)S(=O)(=O)N1CCC(Oc2cccc(C(=O)N3CCCCCCC3)c2)CC1`, the Potency was inconclusive: 14.1 µM [fluorescent, side channel, single point].
`Cn1cccc1/C=N/N1CCN(c2ccccc2)CC1` was tested, and the Potency was inconclusive: 31.6 µM [fluorescent, side channel, partial curve, poor fit].
For `Cc1ccc(S(=O)(=O)N2CC(O)CC2C(=O)O)cc1` (stereo not given), the Potency was “inactive”.
In the case of `CC(=O)c1ccc(N=Nc2c(C)[nH]n(-c3ccccc3)c2=O)cc1`, the Potency is reported as inconclusive: 22.4 µM [inhibitor, partial curve].
`Cc1ccc(S(=O)(=O)C2C(=O)N(C)C3(C)CC2c2ccccc2O3)cc1C` (stereo not given) was tested, and the Potency was inconclusive: 8.91 µM [inhibitor, single point].
For `CN(C)c1ccc(/C=C2/SC(=O)N(CCN=C3NS(=O)(=O)c4ccccc43)C2=O)cc1`, the Potency was inconclusive: 25.1 µM [fluorescent, side channel, partial curve].
